{"source": "paper PMC4680862", "key": {"[1]": {"system": "PhFBH4 (Petunia (species/cultivar not in the material))", "test": "EMSA", "settings": "LightShift chemiluminescent EMSA kit (Pierce), 1 ug recombinant protein, 2 nM biotin probe, pH and temperature not stated (according to Luo et al.), protein details: GST (N-terminal, pGEX)"}, "[2]": {"system": "PhFBH4 (Petunia (species/cultivar not in the material))", "test": "competition with a labelled probe", "settings": "LightShift chemiluminescent EMSA kit (Pierce), 1 ug recombinant protein, 2 nM biotin probe, pH and temperature not stated (according to Luo et al.), protein details: GST (N-terminal, pGEX)"}, "[3]": {"settings": "1 ug protein, 2 nM probe, label: biotin"}}, "note": "Construct, isoform or probe ends are uncertain for at least one entry. A negative result means that nothing was seen under these conditions."}
{"sequence": "TTAAATCACACATGAATAATATCAAATGTTTTGGTC (double strand) [proACO1 E-box probe]", "values": [{"measurement": "binding result", "setting": "[1]; [3]", "value": "no binding"}]}
{"sequence": "TTTCTTTCTCACGTGTAGCTTCTA (double strand) [proACS1 G-box probe]", "values": [{"measurement": "binding result", "setting": "[1]; [3]", "value": "binds"}]}
{"sequence": "TTTCTTTCTCACGTGTAGCTTCTA (double strand) [proACS1 unlabeled competitor]", "values": [{"measurement": "binding result", "setting": "[2]; unlabeled 10-, 100-, 1000-fold excess, gradually abolished binding", "value": "binds"}]}
{"sequence": "TTTCTTTCTGCTACTTAGCTTCTA (double strand) [mutated proACS1 probe]", "values": [{"measurement": "binding result", "setting": "[1]; labeled mutant probe per Results (lane 6), legend calls lane 6 a mutant competitor lane, label: biotin (unlabeled as competitor)", "value": "no binding"}, {"measurement": "binding result", "setting": "[2]; excess mutant competitor, binding to proACS1 maintained, label: biotin (unlabeled as competitor)", "value": "no binding"}]}
